Paper PMC7728079

How the values were obtained:
[1] = target: Yil102c-A tagged with the myc epitope at the C-terminus (S. cerevisiae); experiment: co-IP; myc-tagged Yil102c-A trapped on Myc-Trap Agarose beads from yeast cell-free extract (500 ug protein), 4 °C, 24 h; Dpm1 and Spt14 detected by immunoblot; expression induced with galactose (C-terminal tag) or 0.2 mM CuSO4 (N-terminal tag)
[2] = target: Yil102c-A tagged with the myc epitope at the N-terminus (S. cerevisiae); experiment: as above

binding [1]: binds
B1: Dpm1 (protein, UniProt P14020 1-267)
chain: MSIEYSVIVPAYHEKLNIKPLTTRLFAGMSPEMAKKTELIFVDDNSQDGSVEEVDALAHQGYNVRIIVRTNERGLSSAVLKGFYEAKGQYLVCMDADLQHPPETVPKLFESLHDHAFTLGTRYAPGVGIDKDWPMYRRVISSTARMMARPLTIASDPMSGFFGLQKKYLENCNPRDINSQGFKIALELLAKLPLPRDPRVAIGEVPFTFGVRTEGESKLSGKVIIQYLQQLKELYVFKFGANNLILFITFWSILFFYVCYQLYHLVF

binding [1]: no binding
binding [2]: binds
B2: Spt14 (protein, UniProt P32363 1-452)
chain: MGFNIAMLCDFFYPQLGGVEFHIYHLSQKLIDLGHSVVIITHAYKDRVGVRHLTNGLKVYHVPFFVIFRETTFPTVFSTFPIIRNILLREQIQIVHSHGSASTFAHEGILHANTMGLRTVFTDHSLYGFNNLTSIWVNKLLTFTLTNIDRVICVSNTCKENMIVRTELSPDIISVIPNAVVSEDFKPRDPTGGTKRKQSRDKIVIVVIGRLFPNKGSDLLTRIIPKVCSSHEDVEFIVAGDGPKFIDFQQMIESHRLQKRVQLLGSVPHEKVRDVLCQGDIYLHASLTEAFGTILVEAASCNLLIVTTQVGGIPEVLPNEMTVYAEQTSVSDLVQATNKAINIIRSKALDTSSFHDSVSKMYDWMDVAKRTVEIYTNISSTSSADDKDWMKMVANLYKRDGIWAKHLYLLCGIVEYMLFFLLEWLYPRDEIDLAPKWPKKTVSNETKEARET

These are yes or no findings as the source states them, for the method shown. Binding seen in cells or lysates may run through a third protein. Binding can be weak; no strength is given. Each block holds one binder with its values, some of them ahead of it.
